Measurements taken from patent publication US20080213277A1.
These are yes or no findings as the source states them, for the method shown. Some results given as binding are weak or reduced against the parent protein; the word gives no strength.

T1: recombinant human prohepcidin (SEQ ID NO: 102) (human)
T1 sequence: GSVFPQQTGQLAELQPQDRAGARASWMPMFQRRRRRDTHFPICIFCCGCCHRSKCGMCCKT

T2: hepcidin 20 (SEQ ID NO: 96) (human)
T2 sequence (peptide): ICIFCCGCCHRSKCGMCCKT


What was measured:
[1] = biological target: T1, recombinant human prohepcidin (SEQ ID NO: 102) (human); assay: sandwich immunoassay: Ab2.7 capture, biotinylated rabbit anti-prohepcidin polyclonal detection, prohepcidin standard titrated after 60 min at 25 C in the named buffer or serum
[2] = biological target: T2, hepcidin 20 (SEQ ID NO: 96) (human); assay: BIAcore solution competition, grade interpreted from Table 6 (++++ = 100% inhibition by the solution form)

| binding [1] | binding [2] | Binder |
| --- | --- | --- |
| binds |  | murine anti-human hepcidin monoclonal antibody 2.7 (antibody, V domains shown) VH: QIQLVQSGPELKKPGETVKISCKASGYTFTTYGMSWVKQAPGKGLKWMGWINTYSGVPTYADDFKGRFAFSLETSASTAYLQINNLKNEDTATYFCGRDHYYGEVAYWGQGTLVTVSA VL: DIVLTQSPASLAVSLGQRATISCRASESVDSYGNSFMHWYQQKPGQPPKLLIYRASNLESGIPARFSGSGSRTDFTLTINPVEADDVATYYCHQSNEEYTFGGGTKLEIK |
|  | binds | rat anti-human hepcidin monoclonal antibody R9 (antibody, V domains shown) VH: QVTLKESGPGILQPSQTLSLTCSFSGFSLSTSGICVSWIRQPSGKGLEWLATICWEDSKGYNPSLKNRLTISKDTSNNQAFLKITSVDTADTAIYYCARPLNYGGYSELELDYWGQGVMVTVSS VL: DIQMTQSPSLLSASVGDRVTLSCKASQNIYKYLNWYQQKLGEAPKLLIYYTNSLQTGIPSRFSGSGSGTDFTLTISSLQPEDVATYYCYQYNSGPTFGAGTKLELK |
